Measurements reported in PubChem BioAssay AID1224828 (NIAID, 2016).

Screen: 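Knock-downs that increase or decrease LPS-induced p65 nuclear translocation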 (primary screen)
System: mouse RAW264.7 G9 macrophage reporter cells (GFP-p65, Tnf promoter-mCherry)
Reagent: siRNA pool against mouse genes, 100 nM
Duration: 2 days siRNA transfection, then 40 min LPS before fixation
Challenge: LPS (Salmonella minnesota R595) at 10 ng/ml
Read-out: 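Microscopy ratio of nuclear to perinuclear-ring GFP-p65 signal, scaled to the plate median; gene score is the average of two replicate robust z-scores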
Direction: p65 translocation robust z-score: higher = more nuclear NF-kappaB p65 after LPS than the plate median; nuclear/cytoplasmic p65 ratio: higher = more nuclear NF-kappaB p65
Active means: 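Active if robust z is above 3.3 (negative regulators) or below -1.56, the Tlr4 control median (positive regulators); activity score 50 or more; control wells not called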
Meaning of the calls: active = hit (p65 shift raised or lowered); inactive = no clear change
In all, the deposit lists about 17,000 reagents; below is an unselected part. 762 of all reagents (4.5%) count as active. 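Active calls include both raised and lowered p65 entry, mostly lowered; wells with fewer than 50 cells lack a z-score.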 Raw values vary from plate to plate and are shown uncorrected.

| Gene | p65 translocation robust z-score | nuclear/cytoplasmic p65 ratio, rep 1 | nuclear/cytoplasmic p65 ratio, rep 2 | low cell count flag | activity call |
| --- | --- | --- | --- | --- | --- |
| Atp6v0b | -0.56 | 1.52 | 1.43 | enough cells to score | inactive |
| Gzmb | 1.16 | 1.58 | 1.53 | enough cells to score | inactive |
| Ppp2r3a | -0.36 | 1.55 | 1.56 | enough cells to score | inactive |
| H1f7 | -0.13 | 1.3 | 1.48 | enough cells to score | inactive |
| Radil | -1.3 | 1.35 | 1.4 | enough cells to score | inactive |
| S100a4 | 0.43 | 1.61 | 1.54 | enough cells to score | inactive |
| Twnk | 0.83 | 1.57 | 1.52 | enough cells to score | inactive |
| Col5a2 | -1.03 | 1.33 | 1.25 | enough cells to score | inactive |
| Psmb6 | -1.37 | 1.3 | 1.24 | enough cells to score | inactive |
| Prl8a9 | 1.6 | 1.61 | 1.38 | enough cells to score | inactive |
| Otud7a | – | 1.26 | 1.38 | fewer than 50 cells per well; well left out of scoring | inactive |
| Nup107 | 0.21 | 1.82 | 1.49 | enough cells to score | inactive |
| Plvap | – | 1.35 | 1.19 | fewer than 50 cells per well; well left out of scoring | inactive |
| Zhx3 | -1.34 | 1.29 | 1.09 | enough cells to score | inactive |
| Ptcd1 | -0.12 | 1.34 | 1.22 | enough cells to score | inactive |
| Or1j4 | -1.92 | 1.31 | 1.18 | enough cells to score | active |
| Obox2 | 0.62 | 1.82 | 1.62 | enough cells to score | inactive |
| Rbmy | 0.61 | 1.57 | 1.64 | enough cells to score | inactive |
| Vangl1 | – | 1.24 | 1.04 | fewer than 50 cells per well; well left out of scoring | inactive |
| Zfhx3 | 0.17 | 1.65 | 1.63 | enough cells to score | inactive |
| Bsdc1 | 0.96 | 1.46 | 1.61 | enough cells to score | inactive |
| Ugt3a1 | -0.77 | 1.49 | 1.57 | enough cells to score | inactive |
| BC049715 | -0.92 | 1.37 | 1.33 | enough cells to score | inactive |
| Cidea | 0.05 | 1.49 | 1.38 | enough cells to score | inactive |
| Egr3 | -0.69 | 1.41 | 1.25 | enough cells to score | inactive |
| BC006965 | 1.8 | 1.55 | 2.15 | enough cells to score | inactive |
| Spag1 | -1.92 | 1.3 | 1.26 | enough cells to score | active |
| Rragd | 0.52 | 1.6 | 1.43 | enough cells to score | inactive |
| Gpr137c | -1.16 | 1.33 | 1.19 | enough cells to score | inactive |
| Prps1 | 2.24 | 1.98 | 1.71 | enough cells to score | inactive |
| V1rg10 | 1.61 | 1.6 | 1.4 | enough cells to score | inactive |
| Hoatz | -1.05 | 1.21 | 1.08 | enough cells to score | inactive |
| Or5p57 | – | 1.48 | 1.08 | fewer than 50 cells per well; well left out of scoring | inactive |
| Esr1 | -0.47 | 1.34 | 1.36 | enough cells to score | inactive |
| Rundc3b | 0.22 | 1.69 | 1.63 | enough cells to score | inactive |
| Gsx2 | -0.33 | 1.59 | 1.5 | enough cells to score | inactive |

Targets listed so far whose gene name begins with P or p (6):
| Gene | p65 translocation robust z-score | nuclear/cytoplasmic p65 ratio, rep 1 | nuclear/cytoplasmic p65 ratio, rep 2 | low cell count flag | activity call |
| --- | --- | --- | --- | --- | --- |
| Ppp2r3a | -0.36 | 1.55 | 1.56 | enough cells to score | inactive |
| Psmb6 | -1.37 | 1.3 | 1.24 | enough cells to score | inactive |
| Prl8a9 | 1.6 | 1.61 | 1.38 | enough cells to score | inactive |
| Plvap | – | 1.35 | 1.19 | fewer than 50 cells per well; well left out of scoring | inactive |
| Ptcd1 | -0.12 | 1.34 | 1.22 | enough cells to score | inactive |
| Prps1 | 2.24 | 1.98 | 1.71 | enough cells to score | inactive |

Continued:
| Gene | p65 translocation robust z-score | nuclear/cytoplasmic p65 ratio, rep 1 | nuclear/cytoplasmic p65 ratio, rep 2 | low cell count flag | activity call |
| --- | --- | --- | --- | --- | --- |
| Or1m1 | -0.65 | 1.53 | 1.32 | enough cells to score | inactive |
| Rchy1 | -0.22 | 1.36 | 1.22 | enough cells to score | inactive |
| Slc2a3 | 1.24 | 1.68 | 1.71 | enough cells to score | inactive |
| Cyp27a1 | 0.12 | 1.57 | 1.33 | enough cells to score | inactive |
| Clnk | 1 | 1.9 | 1.78 | enough cells to score | inactive |
| Paqr4 | – | 1.25 | 1.35 | fewer than 50 cells per well; well left out of scoring | inactive |
| Rbms3 | -0.33 | 1.53 | 1.6 | enough cells to score | inactive |
| C1qc | -0.76 | 1.48 | 1.52 | enough cells to score | inactive |
| Arl4c | -1.05 | 1.24 | 1.34 | enough cells to score | inactive |
| Calr | -0.85 | 1.48 | 1.49 | enough cells to score | inactive |
| Fbxo41 | 0.91 | 1.6 | 1.78 | enough cells to score | inactive |
| Mlf1 | 0.86 | 1.57 | 1.44 | enough cells to score | inactive |
| Cacybp | 0.42 | 1.71 | 1.79 | enough cells to score | inactive |
| Nagpa | -1.82 | 1.53 | 1.29 | enough cells to score | active |
| Or8b9 | 0.15 | 1.53 | 1.23 | enough cells to score | inactive |
| Or2o1 | -1.33 | 1.18 | 1.32 | enough cells to score | inactive |
| Fbxo45 | 0.46 | 1.79 | 1.76 | enough cells to score | inactive |
| Or52j3 | -1.23 | 1.3 | 1.11 | enough cells to score | inactive |
| Dclk3 | – | 1.74 | 1.1 | fewer than 50 cells per well; well left out of scoring | inactive |
| Wbp1l | 0.43 | 1.68 | 1.56 | enough cells to score | inactive |
| Plag1 | -1.23 | 1.43 | 1.16 | enough cells to score | inactive |
| F8 | 1.16 | 1.6 | 1.54 | enough cells to score | inactive |
| Helt | 0.32 | 1.64 | 1.64 | enough cells to score | inactive |
| Mtcl1 | – | 1.75 | 1.59 | fewer than 50 cells per well; well left out of scoring | inactive |
| Hgh1 | 0.68 | 1.41 | 1.73 | enough cells to score | inactive |
| Kctd5 | 1.89 | 1.85 | 1.66 | enough cells to score | inactive |
| Immt | 2.51 | 1.89 | 1.78 | enough cells to score | inactive |
| Atp5mk | – | 1.8 | 1.25 | fewer than 50 cells per well; well left out of scoring | inactive |
| Ssxb1 | – | 1.28 | 1.15 | fewer than 50 cells per well; well left out of scoring | inactive |
| Anxa7 | 0.3 | 1.64 | 1.69 | enough cells to score | inactive |
| Cnih1 | -1.26 | 1.36 | 1.62 | enough cells to score | inactive |
| Vcpip1 | 0.86 | 1.45 | 1.6 | enough cells to score | inactive |
| Plac1 | – | 1.2 | 1.13 | fewer than 50 cells per well; well left out of scoring | inactive |
| Rb1 | 0.13 | 1.57 | 1.5 | enough cells to score | inactive |
| Vmn1r46 | -0.77 | 1.17 | 1.25 | enough cells to score | inactive |
| AU040320 | 0.29 | 1.62 | 1.58 | enough cells to score | inactive |
| Khsrp | 0.42 | 1.51 | 1.46 | enough cells to score | inactive |
| Cd8a | -0.45 | 1.38 | 1.32 | enough cells to score | inactive |
| Or51g1 | – | 1.52 | 1.36 | fewer than 50 cells per well; well left out of scoring | inactive |
